The whole screen tested about 300,000 compounds, of which about 3,700 (1.2%) were called active. Inconclusive results, whose numbers are uncertain, are shown with a selection of clear calls. The call rests on the fitted dose curve; tested in HEK293 cells. Potencies beside an inconclusive call are fits to weak or partial responses and may not hold up.
test: qHTS for Inhibitors of binding or entry into cells for Lassa Virus; settings: Lassa virus pseudotype entry inhibition, cell reporter; activity change, negative = inhibition: at 37.9 µM (top of the series) unless noted; further: nearly all actives have a fitted effect of over 50% in size
On the % scale 0 is the no-effect control and ±100 the full control effect; potency means the concentration at half of the fitted maximal effect.

Q: For `CCCCNC(=O)c1ccc(Cn2c(=S)[nH]c3c([nH]c4ccc(OC)cc43)c2=O)cc1`, which Potency is on record?
A: The Potency was inconclusive: 22.4 µM [inhibitor, single point].

Q: Which Potency does the source give for `Oc1cccc(-c2nc3ccccc3s2)c1` here?
A: The Potency was inconclusive: 22.4 µM [inhibitor, single point].

Q: For `CCNC(=S)Nc1ccc(Cl)cc1`, which “activity change, negative = inhibition” value is on record?
A: Its value is inactive: 4.72%.

Q: Which “activity change, negative = inhibition” value does the source give for `CCc1nn(CC(=O)Nc2ccc(C)c(F)c2)c(=O)c2cc3cc(C)ccc3n12` here?
A: The value was inactive: 4.71% [at 46.1 µM].

Q: With `O=C(c1ccc2c(c1)N(Cc1ccc(Cl)cc1)C(=O)c1ccccc1S2(=O)=O)N1CCCCCC1` as the compound, how does the “activity change, negative = inhibition” value read?
A: The value was inactive: -25% [at 46.1 µM].

Q: For `COc1ccc(-c2csc(NC(=O)Cc3ccccc3F)n2)c(OC)c1`, which Potency is on record?
A: Its Potency is inconclusive: 1 µM [inhibitor, full curve, poor fit].

Q: With `CC(=O)OC1=CN(Cc2ccccc2)S(=O)(=O)c2ccccc21` as the compound, how does the “activity change, negative = inhibition” value read?
A: The value was inactive: -18.2% [at 46.1 µM].

Q: For `CNc1ccccc(-c2ccc3ccccc3n2)c1=O`, which Potency is on record?
A: Its Potency is inconclusive: 0.398 µM [activator, partial curve, poor fit].

Q: With `Cc1cnc(C(=O)Nc2nc(-c3ccccc3)cs2)cn1` as the compound, how does the “activity change, negative = inhibition” value read?
A: Its value is inactive: 3.19%.

Q: Which Potency does the source give for `COc1cc(/C=C/C(=O)OCC(=O)NC2CC2)cc(S(=O)(=O)N2CCc3ccccc32)c1OC` here?
A: The Potency was inconclusive: 35.5 µM [inhibitor, partial curve, poor fit].

Q: For `CC(=O)N1CCN(c2ccc(Nc3ncnc4c3oc3ccccc34)cc2)CC1`, which Potency is on record?
A: Its Potency is inconclusive: 35.5 µM [inhibitor, single point].

Q: For `CC[N+](CC)(CC#Cc1ccccc1)CC#Cc1ccccc1`, which Potency is on record?
A: The Potency was inconclusive: 8.91 µM [inhibitor, partial curve, poor fit].

Q: Which Potency does the source give for `Cc1ccc(C(=O)N(CC(C)C)c2nc3ccccc3s2)o1` here?
A: Its Potency is inconclusive: 1.26 µM [inhibitor, single point].

Q: With `CCN(Cc1ccccc1)C(=O)CCS(=O)(=O)c1cc2c(cc1Cl)NC(=O)CO2` as the compound, how does the “activity change, negative = inhibition” value read?
A: Its value is inactive: -7.57% [at 46.1 µM].

Q: With `O=C(NC1CC1)c1ccc(NC(=O)C2CCC2)cc1` as the compound, how does the Potency read?
A: Its Potency is inconclusive: 8.87 µM [activator, single point].

Q: With `CCOC(=O)C1(CCOc2ccccc2)CCN(Cc2cc(OC)c3c(c2)OCO3)CC1` as the compound, how does the Potency read?
A: The Potency was inconclusive: 11.2 µM [inhibitor, partial curve, poor fit].

Q: For `O=C(CSc1nc(-c2ccccc2)c(-c2ccccc2)[nH]1)Nc1ccc2c(c1)OCO2`, which Potency is on record?
A: The Potency was inconclusive: 29.1 µM [inhibitor, single point].

Q: For `CCN(CC(=O)Nc1c(F)cccc1F)C(=O)/C=C/c1c(C)nn(-c2ccc(F)cc2)c1C`, which “activity change, negative = inhibition” value is on record?
A: The value was inactive: 9.46%.

Q: Which Potency does the source give for `O=C(CCOc1ccccc1)Nc1cccc(S(=O)(=O)Nc2ccccc2Cl)c1` here?
A: The Potency was inconclusive: 17.8 µM [inhibitor, single point].

Q: Which Potency does the source give for `O=C(Nc1cnn(Cc2ccc(Cl)cc2Cl)c1)c1cc(-c2cccs2)on1` here?
A: Its Potency is inconclusive: 0.517 µM [inhibitor, full curve, poor fit].

Q: Which Potency does the source give for `Cc1ccc(S(=O)(=O)NC(=O)N2CCN(Cc3c(F)cccc3Cl)CC2)cc1` here?
A: Its Potency is inconclusive: 35.5 µM [activator, partial curve, poor fit].

Q: Which “activity change, negative = inhibition” value does the source give for `c1ccc(C(c2nnnn2Cc2ccco2)N2CCN(c3nc4ccccc4s3)CC2)cc1` (stereo not given) here?
A: The value was inactive: -28.9%.

Q: For `CCN(CC)c1ccc(NC(=O)c2cnccn2)cc1S(=O)(=O)Nc1ccc(OC)cc1`, which Potency is on record?
A: Its Potency is inconclusive: 2.51 µM [inhibitor, partial curve].

Q: For `O=C(CSc1nc2ccccc2c(=O)n1CCCN1CCOCC1)c1c[nH]c2ccccc12`, which Potency is on record?
A: The Potency was inconclusive: 15.8 µM [inhibitor, partial curve, poor fit].

Q: For `CC(=O)c1ccc(N2CCN(C(=O)C3CCN(S(=O)(=O)c4ccc(Br)s4)CC3)CC2)cc1`, which Potency is on record?
A: Its Potency is inconclusive: 17.8 µM [inhibitor, single point].

Q: For `Cc1c(N/N=C(\C#N)C(=O)c2ccccc2)c(=O)n(-c2ccccc2)n1C`, which Potency is on record?
A: The Potency was inconclusive: 7.94 µM [inhibitor, partial curve, poor fit].

Q: With `C/C(=N/OC(=O)c1ccc(Br)cc1)c1ccc(C)cc1` as the compound, how does the Potency read?
A: Its Potency is inconclusive: 1.26 µM [activator, single point].

Q: With `CCCNS(=O)(=O)c1ccc(CCC(=O)Nc2ccc3c(c2)OCCO3)cc1` as the compound, how does the “activity change, negative = inhibition” value read?
A: The value was inactive: -0.803%.

Q: For `Cc1cccc(C(=O)NC(=S)Nc2ccc(S(=O)(=O)N(C)c3ccccc3)cc2)c1`, which Potency is on record?
A: Its Potency is inconclusive: 14.1 µM [inhibitor, partial curve, poor fit].

Q: With `CC(C)CCN(C(=O)Cc1ccc(Cl)c(Cl)c1)c1c(N)n(Cc2ccccc2)c(=O)[nH]c1=O` as the compound, how does the Potency read?
A: The Potency was inconclusive: 6.31 µM [inhibitor, single point].

Q: For `COCCCNC(=O)c1cn(CC(C)C)c(=O)c2c1c1ccccc1n2C`, which Potency is on record?
A: Its Potency is inconclusive: 0.562 µM [activator, full curve, poor fit].

Q: For `COc1cc(OC)cc(-n2nnnc2SCC(=O)NCc2ccc3c(c2)OCO3)c1`, which Potency is on record?
A: The Potency was inconclusive: 4.61 µM [inhibitor, single point].

Q: With `CCc1ccc(NC2=CC(=O)C(=O)c3ccccc32)cc1` as the compound, how does the Potency read?
A: The Potency was inconclusive: 0.224 µM [inhibitor, full curve, poor fit].

Q: With `O=C(Nc1ccc([N+](=O)[O-])cc1)c1nc[nH]c1C(=O)NC1CCCCC1` as the compound, how does the “activity change, negative = inhibition” value read?
A: Its value is inactive: 0.808%.

Q: Which Potency does the source give for `CCC(=O)c1ccc2c(c1)N(CCCN(C)C)c1ccccc1S2` here?
A: The Potency was inconclusive: 29.1 µM [inhibitor, single point].

Q: For `O=C(NC1CCCCCC1)c1ccc(Cl)c(S(=O)(=O)N2CCOCC2)c1`, which “activity change, negative = inhibition” value is on record?
A: Its value is inactive: 1.11%.

Q: For `COc1ccc(C(C)=O)cc1CSc1nncn1-c1ccccc1`, which Potency is on record?
A: The Potency was inconclusive: 0.891 µM [inhibitor, single point].

Q: With `Cc1ccc(C(=O)Nc2nc(C(C)(C)C)cs2)s1` as the compound, how does the Potency read?
A: Its Potency is inconclusive: 11.2 µM [inhibitor, partial curve, poor fit].

Q: With `Cc1ccccc1CNC(=O)C(=O)NCCC1CCCCN1S(=O)(=O)c1cccs1` (stereo not given) as the compound, how does the Potency read?
A: Its Potency is inconclusive: 28.2 µM [inhibitor, single point].

Q: Which Potency does the source give for `COCCCNC(=S)NNC(=O)c1ccccn1` here?
A: Its Potency is inconclusive: 31.6 µM [inhibitor, single point].

Q: Which “activity change, negative = inhibition” value does the source give for `CC1CCCN(C(=O)c2cc3c(=O)n4ccccc4nc3s2)C1` (stereo not given) here?
A: The value was inactive: -25.3% [at 46.1 µM].

Q: With `Cc1ccc(CCSc2ccc(C(C)C)cc2)cn1` as the compound, how does the Potency read?
A: Its Potency is inconclusive: 3.98 µM [inhibitor, single point].

Q: For `O=C1CCC2=C(CCCC2=O)N1`, which “activity change, negative = inhibition” value is on record?
A: Its value is inactive: -0.384%.

Q: For `COC(=O)c1ccc(NC(=O)COc2ccc(C3C(C#N)=C(N)Oc4c3ccc3ccccc43)cc2OC)cc1` (stereo not given), which Potency is on record?
A: The Potency was inconclusive: 10.3 µM [inhibitor, partial curve, poor fit].

Q: With `CC(=O)c1ccc(OCCCC(=O)Nc2cccc(-c3nn[nH]n3)c2)cc1` as the compound, how does the Potency read?
A: The Potency was inconclusive: 10 µM [activator, partial curve, poor fit].

Q: For `N#CCCN(C(=O)COC(=O)c1ccc(S(=O)(=O)Nc2ccccc2)cc1)c1ccccc1`, which Potency is on record?
A: The Potency was inconclusive: 11.2 µM [inhibitor, partial curve].

Q: Which Potency does the source give for `O=C(OC1CCCCC1)c1ccc(NC(=O)C2CCCCC2)cc1` here?
A: The Potency was inconclusive: 14.1 µM [inhibitor, partial curve].

Q: Which “activity change, negative = inhibition” value does the source give for `Cc1ccccc1S(=O)Cc1ccc(C(=O)NC2CCCCCC2)o1` (stereo not given) here?
A: Its value is inactive: -28.7% [at 46.1 µM].

Q: For `COc1cc(CNC(C)(C)CO)cc(Br)c1OCc1ccc(Cl)cc1Cl`, which Potency is on record?
A: Its Potency is inconclusive: 8.91 µM [inhibitor, partial curve, poor fit].

Q: Which Potency does the source give for `Cc1cc(/C=C(\C#N)C(=O)NCC2CCCO2)c(C)n1-c1ccc(Cl)cc1` (stereo not given) here?
A: The Potency was inconclusive: 9.2 µM [inhibitor, partial curve, poor fit].

Q: Which Potency does the source give for `O=C(COc1ccc(S(=O)(=O)N2CCCC2)cc1)Nc1ccc2c(c1)OCCO2` here?
A: The Potency was inconclusive: 14.1 µM [inhibitor, partial curve, poor fit].

Q: Which Potency does the source give for `Cc1ccc(CCNC(=O)c2ccc3c(=O)n(-c4ccc(C)cc4)c(=O)[nH]c3c2)cc1` here?
A: Its Potency is inconclusive: 8.91 µM [activator, partial curve, poor fit].

Q: For `CCCCCC(=O)Nc1ccc2ccccc2c1`, which Potency is on record?
A: The Potency was inconclusive: 35.5 µM [inhibitor, single point].

Q: For `Cc1ccc(NC(=O)CSc2ncnc3ccccc23)cc1S(=O)(=O)N1CCCCC1`, which Potency is on record?
A: Its Potency is inconclusive: 2.51 µM [activator, partial curve, poor fit].

Q: With `CC(=O)N1c2ccccc2C(CBr)=CC1(C)C` as the compound, how does the Potency read?
A: Its Potency is inconclusive: 0.355 µM [inhibitor, partial curve, poor fit].

Q: Which “activity change, negative = inhibition” value does the source give for `COc1ccc(C(=O)Cn2nc(CNc3ccc(Br)cc3)[n+]3c2CCCCC3)cc1` here?
A: Its value is inactive: -27.1%.

Q: For `CNC(=S)N/N=C/c1cccc(OCc2ccccc2F)c1`, which Potency is on record?
A: The Potency was active: 3.98 µM.

Q: Which “activity change, negative = inhibition” value does the source give for `CCOC(=O)c1c(C)[nH]c(C)c1S(=O)(=O)N1CCC(C(=O)N2CCN(c3cccc(C)c3)C(C)C2)CC1` (stereo not given) here?
A: The value was inactive: -24.6% [at 46.1 µM].

Q: With `COc1ccc(Nc2ncccc2C(=O)Nc2ccccc2)cc1` as the compound, how does the “activity change, negative = inhibition” value read?
A: Its value is inactive: 1.99%.

Q: With `CCCOc1ccc(C2c3c(oc4ccccc4c3=O)C(=O)N2c2ccc(C)cn2)cc1OCC` (stereo not given) as the compound, how does the Potency read?
A: The Potency was inconclusive: 1.78 µM [activator, full curve, poor fit].

Q: For `O=C(Nc1ccc(C(F)(F)F)cc1)c1cc(S(=O)(=O)NC2CCCCCC2)ccc1F`, which “activity change, negative = inhibition” value is on record?
A: Its value is inactive: -4.15% [at 46.1 µM].

Q: For `CC(C)(C)C(=O)Nc1ccccc1C(=O)OCC(=O)c1ccc2c(c1)OCCO2`, which Potency is on record?
A: The Potency was inconclusive: 10 µM [inhibitor, single point].

Q: Which Potency does the source give for `Cc1cccc(C)c1OCCCCn1c(C2CC(=O)N(c3ccc(F)cc3)C2)nc2ccccc21` (stereo not given) here?
A: Its Potency is inconclusive: 2.82 µM [inhibitor, full curve].

Q: Which “activity change, negative = inhibition” value does the source give for `COc1ccc2nc(NC(=O)c3ccc(S(=O)(=O)N4CCC(C)CC4)cc3)sc2c1` here?
A: Its value is inactive: -4.32% [at 46.1 µM].

Q: For `CN(C)CC(C)(C)CNS(=O)(=O)c1cccc(Cl)c1Cl`, which Potency is on record?
A: Its Potency is inconclusive: 0.631 µM [activator, partial curve, poor fit].
